Assay results from paper PMC9106302.

Chains of the proteins cited; added tags and fusions are not shown. Lines headed by an entry give the natural chain unless they say otherwise; changes in a name come on top.
UniProt Q7K180: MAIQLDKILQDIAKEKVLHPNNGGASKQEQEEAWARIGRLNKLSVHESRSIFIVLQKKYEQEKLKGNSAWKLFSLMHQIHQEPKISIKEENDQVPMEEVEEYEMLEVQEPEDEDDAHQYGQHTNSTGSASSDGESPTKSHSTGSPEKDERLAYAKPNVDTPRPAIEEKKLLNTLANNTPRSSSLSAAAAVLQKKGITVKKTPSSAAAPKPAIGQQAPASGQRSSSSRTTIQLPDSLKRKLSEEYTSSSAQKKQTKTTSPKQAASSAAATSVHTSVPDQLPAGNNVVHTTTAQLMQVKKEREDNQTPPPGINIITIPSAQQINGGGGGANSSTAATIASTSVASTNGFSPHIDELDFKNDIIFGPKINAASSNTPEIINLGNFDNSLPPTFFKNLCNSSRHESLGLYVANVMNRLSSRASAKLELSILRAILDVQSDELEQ

What was measured:
Assay in all cases: affinity purification with mass spectrometry; purified GFP-3C-bait-3C-His6 immobilised on GFP binder beads, incubated with 6 mg Drosophila embryo nuclear extract in IP buffer (50 mM tris-Cl pH 7.5, 150 mM potassium acetate, 2 mM MgCl2, 10% glycerol, 0.1 mM DTT, 0.2% IGEPAL), 3 hours at 4°C; eluted with 3C protease; enrichment over a GFP-tagged Xenopus Nse I control bait; biological duplicates; only the target purified
[1] = target: T1, GFP-tagged Chro[613-926] (C terminus) (GFP-3C-bait-3C-His6) (D. melanogaster) (UniProt Q86BS3)
T1 sequence: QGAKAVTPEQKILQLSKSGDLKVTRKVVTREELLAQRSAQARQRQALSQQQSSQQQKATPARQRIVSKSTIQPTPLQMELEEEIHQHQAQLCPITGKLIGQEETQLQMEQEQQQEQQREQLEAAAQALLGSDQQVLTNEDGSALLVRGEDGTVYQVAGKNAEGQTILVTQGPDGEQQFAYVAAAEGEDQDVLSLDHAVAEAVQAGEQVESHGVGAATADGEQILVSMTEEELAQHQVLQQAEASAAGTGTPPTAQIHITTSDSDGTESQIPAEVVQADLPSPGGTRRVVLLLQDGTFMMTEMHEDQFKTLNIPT

[2] = target: T2, GFP-tagged CTCF[1-293] (N terminus) (GFP-3C-bait-3C-His6) (D. melanogaster) (UniProt Q9VS55)
T2 sequence: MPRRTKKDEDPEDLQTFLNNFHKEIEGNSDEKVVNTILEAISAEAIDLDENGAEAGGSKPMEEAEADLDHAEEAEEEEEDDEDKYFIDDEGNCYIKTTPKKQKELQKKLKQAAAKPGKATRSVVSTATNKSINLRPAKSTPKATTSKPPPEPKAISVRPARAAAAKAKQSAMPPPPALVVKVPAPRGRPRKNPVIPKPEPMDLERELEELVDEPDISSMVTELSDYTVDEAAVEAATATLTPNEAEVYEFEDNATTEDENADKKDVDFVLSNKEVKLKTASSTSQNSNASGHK

[3] = target: T3, GFP-tagged full-length Cp190[1-1096] bait (GFP-3C-Cp190-3C-His6) (D. melanogaster) (UniProt Q24478)
T3 sequence: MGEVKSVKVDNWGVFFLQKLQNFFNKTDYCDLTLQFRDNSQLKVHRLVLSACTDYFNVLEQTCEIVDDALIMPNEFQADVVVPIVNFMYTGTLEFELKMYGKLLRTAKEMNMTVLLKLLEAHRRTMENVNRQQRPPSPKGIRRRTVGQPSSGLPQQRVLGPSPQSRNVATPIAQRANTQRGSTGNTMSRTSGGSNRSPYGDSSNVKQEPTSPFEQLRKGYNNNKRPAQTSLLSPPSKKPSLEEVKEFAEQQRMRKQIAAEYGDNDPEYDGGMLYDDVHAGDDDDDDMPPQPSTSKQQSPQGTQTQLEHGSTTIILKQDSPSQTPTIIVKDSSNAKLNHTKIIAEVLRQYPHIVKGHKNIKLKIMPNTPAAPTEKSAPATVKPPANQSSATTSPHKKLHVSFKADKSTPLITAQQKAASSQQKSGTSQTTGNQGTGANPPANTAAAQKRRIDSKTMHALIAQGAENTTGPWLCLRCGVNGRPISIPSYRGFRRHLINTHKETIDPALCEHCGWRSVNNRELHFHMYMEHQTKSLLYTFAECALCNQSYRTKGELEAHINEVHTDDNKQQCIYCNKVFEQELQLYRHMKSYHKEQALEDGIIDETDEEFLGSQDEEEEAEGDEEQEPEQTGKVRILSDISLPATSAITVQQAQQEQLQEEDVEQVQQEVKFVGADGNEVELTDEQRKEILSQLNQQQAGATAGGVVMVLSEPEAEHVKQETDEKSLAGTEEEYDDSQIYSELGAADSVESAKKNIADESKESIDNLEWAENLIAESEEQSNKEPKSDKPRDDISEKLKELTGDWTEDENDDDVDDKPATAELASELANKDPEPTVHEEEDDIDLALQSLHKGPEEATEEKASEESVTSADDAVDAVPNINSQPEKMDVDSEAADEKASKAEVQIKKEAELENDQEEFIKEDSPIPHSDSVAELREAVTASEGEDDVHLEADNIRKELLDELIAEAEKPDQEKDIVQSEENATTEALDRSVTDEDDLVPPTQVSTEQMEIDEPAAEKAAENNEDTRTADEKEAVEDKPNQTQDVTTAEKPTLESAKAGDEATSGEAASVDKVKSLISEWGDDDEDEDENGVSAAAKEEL

[4] = target: T4, GFP-tagged Su(Hw)[1-219] (N terminus) (GFP-3C-bait-3C-His6) (D. melanogaster) (UniProt P08970)
T4 sequence: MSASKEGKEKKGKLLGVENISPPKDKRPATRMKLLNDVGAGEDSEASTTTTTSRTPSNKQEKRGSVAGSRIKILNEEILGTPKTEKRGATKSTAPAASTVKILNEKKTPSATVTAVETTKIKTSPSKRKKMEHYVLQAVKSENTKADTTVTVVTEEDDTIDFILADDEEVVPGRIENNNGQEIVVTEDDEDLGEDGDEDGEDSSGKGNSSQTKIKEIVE

binding [1] | binding [2] | binding [3] | binding [4] | Substance
binds | binds | binds | binds | CG1737, endogenous
binds | binds | binds | binds | Cp60, endogenous (from UniProt Q7K180)

Results are given in words; binding and its absence hold for the method and conditions named. Binding seen in cells or lysates may run through a third protein. These calls come from enrichment with a bait or labelling near it, and not all partners need be listed. Tags and fused reporters may be left off the sequences shown.
